Reference: patent US20130338092A1, “COMPOUNDS AND METHODS FOR TARGETING LEUKEMIC STEM CELLS” (The Broad Institute, Inc., priority 2011, published 2013)

Tested on: MLL-AF9 LSC
Experiment: Triple coculture (LSCs and HSPCs on primary MSCs), leukemia cells
Assay type: cell-based, murine
Conditions: for In vitro Therapeutic Index (HSPC/LSC): IC50 HSPC / IC50 LSC, triple coculture; for In vitro Therapeutic Index (Progenitors/LSC): IC50 human progenitors / IC50 murine LSC in triple coculture

Row | SMILES | In vitro Therapeutic Index (HSPC/LSC) | In vitro Therapeutic Index (Progenitors/LSC)
1 | COc1cccc2c1C(=O)c1c(O)c3c(c(O)c1C2=O)C[C@@](O)(C(C)=O)C[C@@H]3O[C@H]1C[C@H](N)[C@H](O)[C@H](C)O1 [Daunorubicin] | <20 | <8
2 | Nc1ccn([C@@H]2O[C@H](CO)[C@@H](O)[C@@H]2O)c(=O)n1 [Ara-C] | <2 | 1
3 | CCC(C)C(=O)OC1CC(C)C=C2C=CC(C)C(CCC(O)CC(O)CC(=O)O)C21 (centres unmarked) [Lovastatic acid] | >8 | >20
4 | CC1(C)C(C(=O)Nc2ccc(S(=O)(=O)c3ccc(NC(=O)C4C(C)(C)C4(C)C)cc3)cc2)C1(C)C [BRD7116] | >10 | 100
